Test results published in PMC4133157.
No constants are given. Whether binding was seen depends on the method and setting. For part of these data: Binding can be weak; no strength is given. Where a sequence is shown, tags or fusion partners need not be part of it. For part of these data: In cells and extracts the contact can be indirect.

T1: EVA-1::MYC::3XFLAG::CFP (C. elegans muscle) (C. elegans) (UniProt Q9XU98)
T1 sequence: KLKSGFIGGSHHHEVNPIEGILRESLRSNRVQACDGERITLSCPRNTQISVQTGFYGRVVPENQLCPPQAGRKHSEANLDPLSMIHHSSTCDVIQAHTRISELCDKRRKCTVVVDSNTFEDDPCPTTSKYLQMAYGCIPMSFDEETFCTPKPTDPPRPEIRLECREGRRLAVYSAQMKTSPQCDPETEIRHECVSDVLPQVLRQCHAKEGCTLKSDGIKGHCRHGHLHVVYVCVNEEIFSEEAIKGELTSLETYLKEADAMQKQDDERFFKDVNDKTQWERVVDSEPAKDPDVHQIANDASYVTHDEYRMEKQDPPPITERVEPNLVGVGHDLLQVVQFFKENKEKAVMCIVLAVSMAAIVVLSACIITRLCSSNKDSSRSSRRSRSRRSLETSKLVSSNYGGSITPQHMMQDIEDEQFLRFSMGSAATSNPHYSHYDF

T2: UNC-40::CFP (C. elegans muscle) (C. elegans) (UniProt G5EF96)
T2 sequence: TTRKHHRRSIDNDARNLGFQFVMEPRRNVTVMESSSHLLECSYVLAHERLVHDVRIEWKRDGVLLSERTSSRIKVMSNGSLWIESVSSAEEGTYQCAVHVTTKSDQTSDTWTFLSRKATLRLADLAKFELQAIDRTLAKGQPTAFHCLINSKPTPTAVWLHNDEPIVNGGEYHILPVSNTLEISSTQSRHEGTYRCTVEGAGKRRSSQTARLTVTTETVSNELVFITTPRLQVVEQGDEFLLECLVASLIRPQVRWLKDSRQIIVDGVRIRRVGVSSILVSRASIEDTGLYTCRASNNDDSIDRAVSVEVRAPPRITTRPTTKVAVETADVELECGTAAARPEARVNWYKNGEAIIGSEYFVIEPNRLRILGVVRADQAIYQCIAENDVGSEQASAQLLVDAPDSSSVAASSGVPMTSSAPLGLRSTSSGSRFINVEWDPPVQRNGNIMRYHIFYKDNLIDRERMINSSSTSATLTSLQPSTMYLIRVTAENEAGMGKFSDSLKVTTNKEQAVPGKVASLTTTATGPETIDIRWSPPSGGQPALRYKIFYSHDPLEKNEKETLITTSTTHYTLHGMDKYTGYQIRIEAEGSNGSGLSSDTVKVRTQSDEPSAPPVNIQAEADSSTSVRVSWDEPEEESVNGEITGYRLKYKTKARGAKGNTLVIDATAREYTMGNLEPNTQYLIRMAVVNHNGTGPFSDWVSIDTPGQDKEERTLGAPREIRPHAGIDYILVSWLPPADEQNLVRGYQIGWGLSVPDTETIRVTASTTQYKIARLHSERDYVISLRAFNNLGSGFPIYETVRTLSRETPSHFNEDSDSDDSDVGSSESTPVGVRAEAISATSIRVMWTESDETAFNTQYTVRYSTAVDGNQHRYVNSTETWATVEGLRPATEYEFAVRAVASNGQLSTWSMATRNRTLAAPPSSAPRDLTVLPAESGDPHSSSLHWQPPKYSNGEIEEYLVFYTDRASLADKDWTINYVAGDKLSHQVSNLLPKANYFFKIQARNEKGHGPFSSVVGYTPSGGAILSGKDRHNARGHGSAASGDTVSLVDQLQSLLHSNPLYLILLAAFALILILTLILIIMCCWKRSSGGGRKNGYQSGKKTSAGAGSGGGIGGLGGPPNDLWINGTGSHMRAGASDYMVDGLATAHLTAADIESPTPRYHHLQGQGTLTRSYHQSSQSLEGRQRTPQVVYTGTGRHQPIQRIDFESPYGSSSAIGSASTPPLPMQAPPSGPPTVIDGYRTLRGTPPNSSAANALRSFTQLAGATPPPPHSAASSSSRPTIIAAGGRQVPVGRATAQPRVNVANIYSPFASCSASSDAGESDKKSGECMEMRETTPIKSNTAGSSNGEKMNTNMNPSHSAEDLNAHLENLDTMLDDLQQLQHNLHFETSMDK

B1: HA::SLT-1::Gaussia luciferase (ligand, UniProt G5EFX6 17-1410)
chain: CPAECVCVDRTVSCVGQQLTEVPQNIPNDTIRLDLQDNEITKIGPNDFSSLMNLKALQLMDNQIVTIHNQSFSSLVFLQKLRLSRNRIRHLPDNVFQNNLKLTHLDLSENDITVVSDAQLQGPEFLEVLNLDKNHIFCLENNVISSWVSLEVLTLNGNRLTTFEEPSNARFRQLDLFNNPWNCDCRLRWMRKWLEKAEGQNKTVCATPLNLQGSSIEILQDKFMTCSGNRKRRYKKTCETAEICPLPCTCTGTTVDCRDSGLTYVPTNLPPSTTEIRLEQNQISSIPSHSFKNLKNLTRLDLSKNIITEIQPKAFLGLHNLHTLVLYGNNITDLKSDTFEGLGSLQLLLLNANQLTCIRRGTFDHVPKLSMLSLYDNDIKSISEVTFQNLTSLSTLHLAKNPLICDCNLQWLAQINLQKNIETSGARCEQPKRLRKKKFATLPPNKFKCKGSESFVSMYADSCFIDSICPTQCDCYGTTVDCNKRGLNTIPTSIPRFATQLLLSGNNISTVDLNSNIHVLENLEVLDLSNNHITFINDKSFEKLSKLRELRLNDNKLHHFSSMVLDEQSNLEILDLSGNNIQCFSSIFFNKATRIREIKVIGNDLLCDCRILPLMSWLRSNSSHSIDIPPCQQFQYSDNESDKQRCAAFPEETCSDDSNLCPPKCSCLDRVVRCSNKNLTSFPSRIPFDTTELYLDANYINEIPAHDLNRLYSLTKLDLSHNRLISLENNTFSNLTRLSTLIISYNKLRCLQPLAFNGLNALRILSLHGNDISFLPQSAFSNLTSITHIAVGSNSLYCDCNMAWFSKWIKSKFIEAGIARCEYPNTVSNQLLLTAQPYQFTCDSKVPTKLATKCDLCLNSPCKNNAICETTSSRKYTCNCTPGFYGVHCENQIDACYGSPCLNNATCKVAQAGRFNCYCNKGFEGDYCEKNIDDCVNSKCENGGKCVDLINSYRCDCPMEYEGKHCEDKLEYCTKKLNPCENNGKCIPINGSYSCMCSPGFTGNNCETNIDDCKNVECQNGGSCVDGILSYDCLCRPGYAGQYCEIPPMMDMEYQKTDACQQSACGQGECVASQNSSDFTCKCHEGFSGPSCDRQMSVGFKNPGAYLALDPLASDGTITMTLRTTSKIGILLYYGDDHFVSAELYDGRVKLVYYIGNFPASHMYSSVKVNDGLPHRISIRTSERKCFLQIDKNPVQIVENSGKSDQLITKGKEMLYIGGLPIEKSQDAKRRFHVKNSESLKGCISSITINEVPINLQQALENVNTEQSCSATVNFCAGIDCGNGKCTNNALSPKGYMCQCDSHFSGEHCDEKRIKCDKQKFRRHHIENECRSVDRIKIAECNGYCGGEQNCCTAVKKKQRKVKMICKNGTTKISTVHIIRQCQCEPTKSVLSEK

Experiments:
[1] = biological target: T1, EVA-1::MYC::3XFLAG::CFP (C. elegans muscle) (C. elegans); test: recruitment of a secreted YFP-tagged ligand to receptor-expressing muscles in living worms (fluorescence microscopy); MADD-4::YFP secreted from neurons (trIs66); CFP-tagged receptor in body wall muscles; CFP-positive muscles examined for MADD-4::YFP; recruitment by EVA-1::CFP also seen without UNC-40
[2] = biological target: T2, UNC-40::CFP (C. elegans muscle) (C. elegans); test: as above
[3] = biological target: 3XFLAG::UNC-5 (no death domain) (HEK293T) (C. elegans); test: co-IP; FLAG-tagged receptor on transfected HEK293T cells incubated with 10x concentrated conditioned medium holding the HA- and Gaussia luciferase-tagged ligand, 4 hours at 4°C; cells lysed in TNTE buffer (0.5% Triton X-100), anti-FLAG immunoprecipitation, luciferase activity of the washed immunoprecipitate, normalised to receptor level

Molecule	binding [1]	binding [2]	binding [3]
MADD-4B::MYC::3XFLAG::YFP (C. elegans neurons) (ligand)	binds	no binding	
B1			no binding
